Reference: PubChem BioAssay AID504804 (Drosophila RNAi Screening Center, 2011)
Purpose: 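dsRNAs that improve Kc cell survival under doxorubicin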 (primary screen). Cell system: Drosophila Kc cells. Knock-down reagent: long dsRNA against Drosophila genes, 0.5 µg dsRNA per well. Time to read-out: 96 h (48 h knock-down, then 48 h drug). Conditions: doxorubicin 5 µg/ml for 48 h, added 48 h after dsRNA. Detection: 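Viability measured as cellular ATP by luminescence after 48 h knock-down then 48 h doxorubicin at 5 µg/ml; unnormalised plate counts for each replicate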. Direction: raw ATP luminescence: higher = more viable cells, protection from doxorubicin. Hit rule: 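Active when both duplicate wells lie at least 2 SD above the plate mean and protection is confirmed by rescreening and independent dsRNAs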.
In all, the deposit lists about 19,000 reagents; below is an unselected part of those with a known target gene and a result. In the full data, 47 (0.25%) were called active. 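Signals are raw, not normalised; exact z-scores behind calls not deposited; actives needed confirmation, so some wells reaching 2 SD are inactive.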 Entries without a mark were called inactive. Reagents against one gene are numbered here. Names joined by + are all predicted targets of the reagent. No sequences are given here.

gene knocked down	reagent	SD above plate mean	raw ATP luminescence, replicate 1	raw ATP luminescence, replicate 2
Strump	1		78073	65190
PGRP-SC2	1		40527	76800
CG3604	1		32040	20250
CG6574	1		54017	56063
flz	1		40787	72360
CG13390	1		39990	67960
CG33169	1		65727	67067
CG32444	1		24867	18050
eg	1		62587	66850
CG15818	1		1.27e5	73133
CG3744	1		67680	84030
Spn27A	1		35767	48277
CG16826	1		36567	57477
CG34396	1		53553	32527
CG34396	2		40000	40140
CG10208	1		57700	70840
CG8066	1		84950	96260
Cyp6a16Psi (retired record)	1		29960	25793
CG17784	1		65280	87410
CG32544	1		2.42e5	2.54e5
Gr47b	1		82530	79180
Orc6	1		34000	70727
CG7408	1		63990	44613
toe	1		1.51e5	1.50e5
toe	2		54363	41457
CG14072	1		47777	68017
Srp54k	1		98150	84437
Jhbp1	1		49733	42847
mrn	1		28247	28270
CG9592	1		58877	42823
ND-42	1		34940	29000
Gmd	1		1.02e5	63913
Ocho	1	2 to 3 SD above plate mean	1.23e5	79947
CG4707	1		75367	64067
comr	1		66263	69707
Rbcn-3B	1		60650	53900
Elba1	1		25577	33783
CG12782	1		39253	46100
TMEM216	1		68680	59613
CG10527	1		89257	54300
Wnt2	1		89313	78377
Wnt2	2		44837	69053
aust	1		39363	88253
CG2124	1		3.62e5	3.22e5
p	1		62247	65597
bb8	1		74620	62300
Femcoat	1		39990	48540
Ir67a	1		1.13e5	83970
CR32745	1		1.85e5	1.89e5
CG7135	1		3.30e5	3.42e5
Rbfox1	1		1.78e5	2.13e5
Rbfox1	2		64503	53580
Rbfox1	3		61427	54697
CG11286	1		66713	66000
CG3223	1		61097	61027
ACXB	1		68483	74360
TM9SF4	1		75347	60713
TM9SF4	2		70527	75020
CG14017	1		20673	22417
CG5937	1		55960	54020
CG10359	1		32377	36543
Hasp	1		89223	55693
alphaKap4	1		72420	79990
Hmr	1		3.09e5	3.49e5
Prps	1		1.66e5	1.27e5
Prps	2		81873	53743
Prps	3		85787	56423
CG4892	1		84040	83570
Ptip	1		72777	42077
Ptip	2		59690	37790
Tep4	1		55863	59567
CG3587	1		2.41e5	2.58e5
CG34107	1		65837	54587
mid	1		29823	28927
Karybeta3	1		24407	21180
CG40341 (retired record)	1		61570	73103
CG40341 (retired record)	2		59967	54670
Rpn7	1		35603	34810
CG33290	1		62737	68833
mirr	1		65920	59333
CG8854	1		74927	64533
CG4598	1		46177	47880
CG32425	1		40250	35887
CG32425	2		41137	37487
Fie	1		37997	38053
nwk	1		58983	62107
CG33155 + mRpL53	1		85270	1.14e5
MFS16	1		55590	52727
Usp15-31	1	2 to 3 SD above plate mean	1.05e5	1.05e5
Usp15-31	2		32107	41537
CG8187	1		54443	70897
CG1603	1		69627	51777
CG42697	1		1.49e5	99930
Flad2	1		70113	59923
CG30466	1		1.31e5	1.15e5
Dip-B	1		62483	27200
CG7252	1		34893	42010
Hip14	1		22140	35173
bocks	1		42147	31660
Akap200	1		92220	74413
trv	1		2.09e5	2.06e5
trv	2		44690	32240
trv	3		53530	38200
trv	4		54120	44270
CG1983	1		44140	45060
CG7091	1		1.90e5	1.66e5
CG7091	2		1.05e5	65860

5 entries from above, arranged by “raw ATP luminescence, replicate 2”, high to low.
gene knocked down	reagent	SD above plate mean	raw ATP luminescence, replicate 1	raw ATP luminescence, replicate 2
CG32544	1		2.42e5	2.54e5
CG8066	1		84950	96260
CG17784	1		65280	87410
Gr47b	1		82530	79180
Cyp6a16Psi (retired record)	1		29960	25793
